Among all 31,000 sequences or so, about 1,400 (4.5%) were called active.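 Rule for the calls: active = median seed-adjusted z-score above 1 or below -1; inactive = the rest.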 Some of the results follow.

A short description of this assay: Novel Modifiers of Survival Motor Neuron (SMN) Protein: Gene Identification via Genome-wide siRNA Screen.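 Note: luminescence tracks full-length SMN protein made from the SMN2 reporter.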 The conditions noted are these: HEK293T SMN2-luciferase reporter, siRNA knockdown, 72 h; actives lie on both sides. A digest of the protocol:
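Luciferase signal, proportional to full-length SMN made from an SMN2 cDNA reporter in stable HEK293T cells, was read 72 h after siRNA reverse transfection. Values were expressed as MAD scores after non-targeting-control normalization and log10 conversion; seed analysis flagged off-targets.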
As for GGGUCUCAGAAGACGUGUATT against CRAT, the median seed-adjusted z-score is active: -1.42.
For the sequence GCUAUACCGUAAUUACCUUTT against GPR18, the median seed-adjusted z-score was inactive: -0.378.
Take CAUCCCAUUUGAUAGAUUUTT against FCAR: the median seed-adjusted z-score was inactive: -0.106.
With CGACAAAGAUUAUCACUUUTT against NPM1 the figure was inactive: 0.141; with AAUUCAGAGAGUAAAUCUATT against RBM9, inactive: 0.895.
As to GAAACAGUACCUCUCCAUUTT against MSX2, the median seed-adjusted z-score was inactive: -0.406.
Regarding GGAGAAGGAUGGUAUCGUATT against ZKSCAN1, the median seed-adjusted z-score was inactive: 0.229.
Turning to CAUUGAAUGAUAUACGGUATT against CHN1, the median seed-adjusted z-score was inactive: 2.1e-05.
With GGAAGAUCCUCAUCAGCGATT against KCNA10 the figure was inactive: 0.00887; with CGAUGAACAUGUUAGACAUTT against AZIN1, active: -1.14.
The result for GGUAUGGUGUCUGGACUUATT against NRP1 reads inactive: 0.561; that for GGCAUACAAGGAGUCAGUATT against CSTF2T, inactive: 0.387; that for GAAUCUUUAUAUCAACGGATT against AKAP10, inactive: 0.0689.
With CUUCUACACUGACAUCUAATT against KATNAL1 the figure was inactive: -0.0327; with GAUUGAUAGAAGCACCCUATT against DCC, inactive: 0.303; with CAUCGAUGCUGCUUAUGCATT against HDC, inactive: -0.0146.
Take CAACUACAAGGAACAGCUATT against OBFC2A: the median seed-adjusted z-score was inactive: 0.406.
Turning to CGGACAUCGCGUACAACCATT against FZD1, the median seed-adjusted z-score is inactive: -0.163.
With GGGAGAUACCAGUUCAACATT against BTD the figure was inactive: -0.165; with CUGGAUGCCUGCUACCUGATT against HIF3A, inactive: -0.0855; with GGAUUGAGCUAAAGGCAUUTT against GPR83, inactive: 0.105.
With GGACCAGUUUGAGAGUGAATT against CNOT3 the figure was inactive: 0.872.
With CAGCGAGAUUUAUGACUAUTT against AXL, the median seed-adjusted z-score is inactive: -0.603.
The result for CGCUGUCAAGACCACCAAATT against LFNG reads inactive: -0.13; that for AGAUCCUCCUGCAUAUUGATT against CYP4F2, inactive: -0.387; that for GCAGCGGCAUCAAACUCAATT against MKNK2, inactive: 0.281.
With CAAACAAGACUGUUGAUGATT against CALB1 the figure was inactive: 0.191; with CGUUUCGCAUCUUUCAUCATT against KRT82, inactive: 0.129.
The result for CCUGCACAGUACCAACAGATT against PPA1 reads inactive: -0.0865.
As for GAGUAUACUGUGACAUGAATT against FGB, the median seed-adjusted z-score is inactive: 0.481.
The result for AGAUGAGAACUCUAAGCAATT against CHRM2 reads inactive: 0.053.
With GGAUGACACCGUUCAAUCATT against LRRFIP1 the figure was inactive: -0.181; with GGGUAUUGUUUGGACUUUUTT against GPR156, inactive: 0; with CGAGUGUACCGAGUACAGATT against ELP3, inactive: 0.321.
The result for CGAAAUCCAUAGAGAUGAATT against CABC1 reads inactive: -0.197; that for GAAAGACACUGGGACUCGATT against SNRNP35, inactive: 0.172; that for CAAUCCUGACUCAAACUAATT against RAG2, inactive: 0.138.
With GCCUGUUCGAAAGCGCAAATT against UBR4, the median seed-adjusted z-score is inactive: 0.602.
With CAAUGUUCCUCUACCUCUATT against MAL2 the figure was inactive: -0.604.
The result for GGCUAAGUCAUGAAGAUAUTT against CYP4V2 reads inactive: 0.
In the case of GGCCGUAACCUCAACCGUUTT against SNX33, the median seed-adjusted z-score is inactive: -0.246.
With GACUUUAGCCCAAUUAAUATT against MYLIP the figure was inactive: 0.652; with CUAUGGUAAUGUUUGCUUUTT against ZXDB, inactive: 0.186; with ACAUGGACGUGAAAGGGAATT against WFIKKN2, inactive: -0.353.
The result for GACUCUCUGCUGAUCCGAATT against AK2 reads inactive: 0.418.
For the sequence AUGCUACUCUAAAACCCAATT against NEUROD4, the median seed-adjusted z-score is inactive: 0.0349.
The result for GGAGCAGACGGUGACCAAATT against CIB3 reads inactive: 0.234; that for CGGUCCUUCUCAACAACAATT against MAP3K7IP1, inactive: 0.
For the sequence GCGUAGACCUAGAUCUUUATT against NFE2L3, the median seed-adjusted z-score is inactive: 0.118.
The result for GGGAUAUCUUCUAACCAUATT against IDS reads inactive: -0.074; that for AGACGUACCGAGAGGAGUATT against PLA2G2F, inactive: 0.508; that for GAUUGUUCAGAAUAGCAAUTT against BPTF, inactive: -0.273.
The result for CCUCAACAGUGUCUACAUUTT against LYL1 reads inactive: -0.118; that for GCAGCGAAGGAAUAGGACATT against PRRX1, inactive: -0.172; that for CACUUUUAGUAUUUCGAAUTT against ZBTB5, inactive: 0.314.
Regarding AGAGAUUAUAUGUAUGUAATT against HS3ST3B1, the median seed-adjusted z-score was inactive: 0.937.
Turning to CCCUCGAUGUGGUCAUGAATT against ZNRD1, the median seed-adjusted z-score was inactive: -0.133.
As to GGUGACAGGUUGAAAGUGATT against PYGB, the median seed-adjusted z-score was inactive: -0.292.
With AGUACUUUGUAUUGGGAUATT against RCE1 the figure was active: -1.19; with GGACAUCGAUCUCAGGGAATT against SYN2, inactive: -0.375.
The result for CAAUAUGAACUGUCAAUGUTT against ERAP2 reads inactive: 0.081; that for CAGGAGUGAUUAAACGGUUTT against GNAI3, inactive: 0.0656.
The result for GCACAGAUAUCCUCGUGUATT against ARL11 reads active: 1; that for CAGAUUAUUUGGAUCACAUTT against BRD1, inactive: 0.0644; that for CUAUGGACAUGAAAGGCUATT against EPHX2, inactive: 0.
GGAUGAAGAACGAAUGGUATT against ENDOD1: the median seed-adjusted z-score was inactive: -0.138.
With GUGCUGGAUUUGCACAACATT against LRRC55 the figure was inactive: 0.314; with UGUUCUAUGUGAAGAAGGATT against KCNK1, inactive: 0.124.
With GAAGAAAACAUGUCUGUGATT against HRH3 the figure was inactive: 0.276; with GCAUAAAAGUAUCAGACCATT against DDX18, inactive: 0.241; with GGGACUGGGAUUUACGUUATT against MTMR11, inactive: -0.0244.
AGGCAUCCGUGAGACCAUUTT against DHPS: the median seed-adjusted z-score was inactive: 0.0662.
For the sequence CCAAGUCUGUGAAAAUCCUTT against TRIM8, the median seed-adjusted z-score is inactive: -0.296.
Regarding CAUGGGCUCUAUUACGCUUTT against SPEN, the median seed-adjusted z-score is active: -1.69.
The result for UGCUAUUGAUAAACUUUUUTT against TALDO1 reads inactive: 0.131.
As for GCAUUUGGAUGGAUCAUGUTT against CD163, the median seed-adjusted z-score is inactive: 0.021.
The result for GGACCUGUUCAGUCUGGAATT against BTNL9 reads inactive: 0.0189; that for CGGUUGAACUUCGAAAUAUTT against NF1, inactive: -0.36.
On to GCAUGGAGCAGAUCGUGUUTT against ITPR3, for which the median seed-adjusted z-score was active: -1.28.
With CGAAGGCCUUGUGAACAGATT against FOSL1 the figure was inactive: -0.431; with GGAGAAAGGUAAAACGCAUTT against GPATCH2, inactive: 0.0828.
With CCCUGCAAAUUGGACAUGATT against SPINT4 the figure was inactive: 0.354; with CGAUAGUGAGUAUAUCAGUTT against ZMYND8, inactive: -0.065.
With CGACCGUUCUUUCCCUGCATT against GJC2 the figure was inactive: 0.
As to GGGAGGUACUCAGAAAACATT against CCR6, the median seed-adjusted z-score is inactive: 0.103.
The result for AGAUGUUUCAUGUGCAGAATT against ZFAND5 reads inactive: 0.0289.
The result for CCCUGUUAUGUCAAGCUUATT against SYNPR reads inactive: 0.257; that for GGUAACAUUCGAUCCAGAATT against SLC9A7, inactive: 0.349.
For the sequence GCAACACGGCGAUGGAGUUTT against ZACN, the median seed-adjusted z-score is inactive: 0.065.
With ACAUGACCAUGGAAGCUGATT against HIPK4 the figure was inactive: 0; with GUCUUUAAUGCGCACUAUATT against FEZF1, inactive: 0.155; with CGGAGUCGAUGGUUCAGUUTT against ARNTL, inactive: 0.0838.
The result for GGAUUUUGGGCACAAGUUUTT against MTMR4 reads inactive: -0.735; that for GGAGAUACUCCGAACCUCATT against TEX13A, active: -1.22; that for UGUCGUCUGUGAAUGCUAATT against ALDOA, inactive: -0.258.
With GCAAAGUACUGUGCUAAGATT against ROBO3 the figure was inactive: 0.131; with GGUGGAUGGUAAUAAGGAATT against CTPS2, active: 1.08.
As to GAUGUAUUGUUACUACCAATT against SCNN1G, the median seed-adjusted z-score is inactive: -0.616.
Consider GCAACAACCUGAUUAAGGATT against MED24, for which the median seed-adjusted z-score is active: -2.3.
With GGUGAACACCCUAAAAGAATT against JMJD6 the figure was inactive: 0.314; with GCAAUUACAUGGUGGUCUATT against MEGF8, inactive: 0.0906.
The result for GCACCAGUCGAGGUCUAAATT against PEG3 reads inactive: 0.5.
The result for ACACCUCACUCAUCCUCUUTT against GNAZ reads inactive: -0.604; that for GAGCAUCGAUCUUAACCAUTT against CPXM1, inactive: 0.147; that for CCGUGGACCAGUACUUUUATT against MAN2B1, inactive: -0.246.
Take GGAGAAAGCGGACCACCUUTT against SEBOX: the median seed-adjusted z-score was inactive: 0.2.
The result for AGGGAAAACUGGAGCAGGATT against APC2 reads inactive: 0.00354; that for CUCAAUCCAUAGUAAGUAUTT against ZNF678, inactive: 0.172.

The values are drawn from PubChem BioAssay AID1347426 (Functional Genomics Laboratory (NCATS/FGL), 2020).
